# Assay results reported in the supplement of paper PMC10849652.
# The chains behind the UniProt entries cited, without tags or fusion partners. Where a name states a change or a piece, a line headed by the entry shows the natural chain unless it says otherwise.
# UniProt Q9HCG7: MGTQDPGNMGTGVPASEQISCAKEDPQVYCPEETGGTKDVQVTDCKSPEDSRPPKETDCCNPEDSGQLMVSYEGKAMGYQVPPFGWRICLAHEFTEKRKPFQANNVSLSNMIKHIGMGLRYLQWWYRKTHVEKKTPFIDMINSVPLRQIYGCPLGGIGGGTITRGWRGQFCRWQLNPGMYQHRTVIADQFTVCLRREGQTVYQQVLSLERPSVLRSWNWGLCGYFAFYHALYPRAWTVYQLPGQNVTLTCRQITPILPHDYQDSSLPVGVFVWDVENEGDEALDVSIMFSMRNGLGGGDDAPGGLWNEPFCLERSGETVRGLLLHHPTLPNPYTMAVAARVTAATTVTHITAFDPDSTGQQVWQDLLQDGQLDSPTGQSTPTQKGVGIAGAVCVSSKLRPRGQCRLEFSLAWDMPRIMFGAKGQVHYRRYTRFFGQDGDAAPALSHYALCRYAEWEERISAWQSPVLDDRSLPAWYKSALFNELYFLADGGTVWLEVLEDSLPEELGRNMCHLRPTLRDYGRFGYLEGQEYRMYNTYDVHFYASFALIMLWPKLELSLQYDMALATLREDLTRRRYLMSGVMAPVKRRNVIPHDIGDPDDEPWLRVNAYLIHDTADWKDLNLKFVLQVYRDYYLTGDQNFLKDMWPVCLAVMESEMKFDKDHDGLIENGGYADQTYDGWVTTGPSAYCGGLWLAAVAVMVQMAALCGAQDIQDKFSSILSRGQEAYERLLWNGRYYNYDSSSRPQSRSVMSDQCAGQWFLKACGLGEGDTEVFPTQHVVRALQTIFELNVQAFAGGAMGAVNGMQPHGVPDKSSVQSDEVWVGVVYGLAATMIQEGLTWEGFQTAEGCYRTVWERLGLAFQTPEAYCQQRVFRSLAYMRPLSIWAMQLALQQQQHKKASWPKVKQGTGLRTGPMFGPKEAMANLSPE
# UniProt Q99988: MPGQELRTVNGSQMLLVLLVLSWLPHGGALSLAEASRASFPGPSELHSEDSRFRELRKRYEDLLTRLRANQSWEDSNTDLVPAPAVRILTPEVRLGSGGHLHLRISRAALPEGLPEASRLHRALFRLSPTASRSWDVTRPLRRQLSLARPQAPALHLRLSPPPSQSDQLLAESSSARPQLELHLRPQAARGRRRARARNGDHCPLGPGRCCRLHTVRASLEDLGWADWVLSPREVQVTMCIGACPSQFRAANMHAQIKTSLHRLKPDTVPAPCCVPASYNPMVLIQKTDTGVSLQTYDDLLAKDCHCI
# UniProt Q86XX4: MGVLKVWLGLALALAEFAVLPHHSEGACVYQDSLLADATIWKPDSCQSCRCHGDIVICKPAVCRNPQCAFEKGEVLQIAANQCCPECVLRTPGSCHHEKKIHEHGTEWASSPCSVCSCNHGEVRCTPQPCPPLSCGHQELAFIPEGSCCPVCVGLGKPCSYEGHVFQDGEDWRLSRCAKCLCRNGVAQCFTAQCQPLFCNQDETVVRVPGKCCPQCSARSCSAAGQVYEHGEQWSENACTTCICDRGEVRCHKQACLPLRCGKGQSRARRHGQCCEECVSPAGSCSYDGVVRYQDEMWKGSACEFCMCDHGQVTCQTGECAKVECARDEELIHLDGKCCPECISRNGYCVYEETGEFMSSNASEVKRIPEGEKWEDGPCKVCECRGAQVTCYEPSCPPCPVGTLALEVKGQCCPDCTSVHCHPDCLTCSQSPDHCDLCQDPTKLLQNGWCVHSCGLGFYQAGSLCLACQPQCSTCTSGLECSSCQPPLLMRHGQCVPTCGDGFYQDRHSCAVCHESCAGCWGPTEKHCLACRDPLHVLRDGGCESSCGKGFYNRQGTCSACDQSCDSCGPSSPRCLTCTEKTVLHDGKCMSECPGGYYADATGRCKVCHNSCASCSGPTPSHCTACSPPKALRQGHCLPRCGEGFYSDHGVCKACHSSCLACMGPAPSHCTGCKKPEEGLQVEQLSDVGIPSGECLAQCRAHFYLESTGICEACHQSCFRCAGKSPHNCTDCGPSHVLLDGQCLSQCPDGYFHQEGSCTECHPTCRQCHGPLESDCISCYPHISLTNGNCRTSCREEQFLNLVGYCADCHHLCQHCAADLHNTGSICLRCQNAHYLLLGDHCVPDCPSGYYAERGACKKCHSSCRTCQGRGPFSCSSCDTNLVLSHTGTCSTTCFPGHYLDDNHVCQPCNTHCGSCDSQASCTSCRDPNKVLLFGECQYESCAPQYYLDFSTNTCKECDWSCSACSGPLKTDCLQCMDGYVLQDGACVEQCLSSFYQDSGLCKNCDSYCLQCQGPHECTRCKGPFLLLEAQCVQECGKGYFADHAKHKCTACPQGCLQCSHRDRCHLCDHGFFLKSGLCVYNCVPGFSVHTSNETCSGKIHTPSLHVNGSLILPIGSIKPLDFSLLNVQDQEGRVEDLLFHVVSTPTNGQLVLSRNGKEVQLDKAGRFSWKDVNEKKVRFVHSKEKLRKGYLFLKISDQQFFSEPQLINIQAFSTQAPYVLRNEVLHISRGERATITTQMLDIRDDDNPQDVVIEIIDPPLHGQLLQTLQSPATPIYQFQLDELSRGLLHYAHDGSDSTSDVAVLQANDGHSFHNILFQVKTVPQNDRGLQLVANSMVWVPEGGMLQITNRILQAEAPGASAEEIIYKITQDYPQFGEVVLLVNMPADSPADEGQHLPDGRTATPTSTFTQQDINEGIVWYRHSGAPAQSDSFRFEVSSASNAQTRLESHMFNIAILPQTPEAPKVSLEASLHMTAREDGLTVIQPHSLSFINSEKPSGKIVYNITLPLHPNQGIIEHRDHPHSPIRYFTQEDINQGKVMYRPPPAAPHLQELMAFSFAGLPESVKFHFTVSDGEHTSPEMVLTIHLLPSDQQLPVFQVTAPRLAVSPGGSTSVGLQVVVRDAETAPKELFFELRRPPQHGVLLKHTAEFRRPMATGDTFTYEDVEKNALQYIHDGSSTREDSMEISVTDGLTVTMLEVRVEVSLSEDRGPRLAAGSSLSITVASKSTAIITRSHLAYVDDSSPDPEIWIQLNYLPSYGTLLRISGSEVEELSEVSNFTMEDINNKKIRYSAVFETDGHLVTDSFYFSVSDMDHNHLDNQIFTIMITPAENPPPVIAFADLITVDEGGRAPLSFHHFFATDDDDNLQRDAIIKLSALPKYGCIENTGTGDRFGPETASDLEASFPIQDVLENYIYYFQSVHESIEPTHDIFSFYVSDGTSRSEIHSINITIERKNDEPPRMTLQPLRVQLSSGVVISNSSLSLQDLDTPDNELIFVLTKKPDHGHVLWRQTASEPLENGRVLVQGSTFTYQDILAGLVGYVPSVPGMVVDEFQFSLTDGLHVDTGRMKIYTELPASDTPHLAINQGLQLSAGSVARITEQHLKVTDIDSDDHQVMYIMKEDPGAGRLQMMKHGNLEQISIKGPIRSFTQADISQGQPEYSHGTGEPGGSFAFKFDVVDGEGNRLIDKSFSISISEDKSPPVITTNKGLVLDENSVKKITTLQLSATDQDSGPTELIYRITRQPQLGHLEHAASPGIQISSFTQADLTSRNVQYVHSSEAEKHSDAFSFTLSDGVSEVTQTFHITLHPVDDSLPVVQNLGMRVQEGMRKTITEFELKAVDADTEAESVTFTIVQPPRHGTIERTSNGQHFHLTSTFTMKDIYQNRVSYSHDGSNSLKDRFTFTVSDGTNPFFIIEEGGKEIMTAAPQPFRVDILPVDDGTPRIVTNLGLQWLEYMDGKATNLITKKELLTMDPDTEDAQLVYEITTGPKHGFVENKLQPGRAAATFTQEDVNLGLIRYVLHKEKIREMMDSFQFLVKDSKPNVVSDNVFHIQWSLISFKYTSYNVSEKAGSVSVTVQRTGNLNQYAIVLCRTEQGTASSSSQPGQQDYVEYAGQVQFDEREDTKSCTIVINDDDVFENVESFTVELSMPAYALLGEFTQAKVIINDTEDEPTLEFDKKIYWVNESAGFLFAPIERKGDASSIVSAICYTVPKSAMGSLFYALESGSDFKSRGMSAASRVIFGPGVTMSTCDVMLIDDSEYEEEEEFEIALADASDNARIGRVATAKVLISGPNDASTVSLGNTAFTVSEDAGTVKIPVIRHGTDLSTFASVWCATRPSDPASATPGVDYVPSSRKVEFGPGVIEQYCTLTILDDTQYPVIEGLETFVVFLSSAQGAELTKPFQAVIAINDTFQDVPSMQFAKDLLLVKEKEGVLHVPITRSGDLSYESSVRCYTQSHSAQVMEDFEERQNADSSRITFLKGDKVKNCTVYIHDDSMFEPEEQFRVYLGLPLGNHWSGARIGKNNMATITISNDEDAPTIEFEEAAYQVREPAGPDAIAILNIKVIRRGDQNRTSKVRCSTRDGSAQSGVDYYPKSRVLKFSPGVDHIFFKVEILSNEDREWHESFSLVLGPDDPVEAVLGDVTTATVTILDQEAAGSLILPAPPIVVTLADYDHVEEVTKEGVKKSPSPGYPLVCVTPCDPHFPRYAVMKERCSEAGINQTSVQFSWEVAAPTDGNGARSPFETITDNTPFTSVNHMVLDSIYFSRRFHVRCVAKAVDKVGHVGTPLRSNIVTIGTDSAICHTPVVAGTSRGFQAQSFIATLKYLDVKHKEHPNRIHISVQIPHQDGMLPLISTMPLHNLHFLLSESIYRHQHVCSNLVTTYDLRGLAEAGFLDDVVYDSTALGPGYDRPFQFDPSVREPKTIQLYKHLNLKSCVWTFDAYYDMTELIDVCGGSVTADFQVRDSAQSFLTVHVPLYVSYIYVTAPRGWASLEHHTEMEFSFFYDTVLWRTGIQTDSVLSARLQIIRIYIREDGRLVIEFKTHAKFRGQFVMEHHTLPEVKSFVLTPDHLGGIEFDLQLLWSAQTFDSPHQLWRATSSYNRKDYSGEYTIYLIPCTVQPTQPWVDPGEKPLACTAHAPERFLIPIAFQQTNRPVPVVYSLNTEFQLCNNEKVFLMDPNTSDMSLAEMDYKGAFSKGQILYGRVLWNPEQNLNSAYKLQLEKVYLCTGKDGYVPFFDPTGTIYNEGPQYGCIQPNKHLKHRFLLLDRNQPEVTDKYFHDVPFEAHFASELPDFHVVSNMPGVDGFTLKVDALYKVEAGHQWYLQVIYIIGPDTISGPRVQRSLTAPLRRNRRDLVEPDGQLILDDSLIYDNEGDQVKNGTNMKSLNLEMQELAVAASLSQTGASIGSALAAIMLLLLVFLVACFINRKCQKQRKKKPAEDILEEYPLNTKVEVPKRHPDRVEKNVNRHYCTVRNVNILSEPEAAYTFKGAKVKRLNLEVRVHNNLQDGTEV
# UniProt P58012: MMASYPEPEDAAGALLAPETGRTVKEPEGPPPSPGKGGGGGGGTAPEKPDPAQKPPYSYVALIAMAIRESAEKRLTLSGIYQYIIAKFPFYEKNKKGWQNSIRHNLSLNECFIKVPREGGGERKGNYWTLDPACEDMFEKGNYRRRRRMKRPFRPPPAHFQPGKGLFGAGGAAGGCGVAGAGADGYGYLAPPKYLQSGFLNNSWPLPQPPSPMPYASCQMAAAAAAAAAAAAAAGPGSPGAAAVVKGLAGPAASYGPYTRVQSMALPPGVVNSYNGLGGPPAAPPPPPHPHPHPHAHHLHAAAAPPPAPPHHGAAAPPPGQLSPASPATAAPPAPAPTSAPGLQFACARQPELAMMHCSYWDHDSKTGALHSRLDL
# FOXO3B, A0A2Z4LIS9, UniProt A0A2Z4LIS9, whole entry, looked up: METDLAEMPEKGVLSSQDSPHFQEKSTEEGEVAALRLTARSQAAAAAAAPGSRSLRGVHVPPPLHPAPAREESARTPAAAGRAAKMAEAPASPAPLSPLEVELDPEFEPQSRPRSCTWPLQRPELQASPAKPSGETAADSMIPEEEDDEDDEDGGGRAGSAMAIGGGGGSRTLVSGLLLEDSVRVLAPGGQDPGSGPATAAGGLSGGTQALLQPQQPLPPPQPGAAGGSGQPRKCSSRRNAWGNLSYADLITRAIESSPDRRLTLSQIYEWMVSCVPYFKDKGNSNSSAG
# UniProt Q8IWF2: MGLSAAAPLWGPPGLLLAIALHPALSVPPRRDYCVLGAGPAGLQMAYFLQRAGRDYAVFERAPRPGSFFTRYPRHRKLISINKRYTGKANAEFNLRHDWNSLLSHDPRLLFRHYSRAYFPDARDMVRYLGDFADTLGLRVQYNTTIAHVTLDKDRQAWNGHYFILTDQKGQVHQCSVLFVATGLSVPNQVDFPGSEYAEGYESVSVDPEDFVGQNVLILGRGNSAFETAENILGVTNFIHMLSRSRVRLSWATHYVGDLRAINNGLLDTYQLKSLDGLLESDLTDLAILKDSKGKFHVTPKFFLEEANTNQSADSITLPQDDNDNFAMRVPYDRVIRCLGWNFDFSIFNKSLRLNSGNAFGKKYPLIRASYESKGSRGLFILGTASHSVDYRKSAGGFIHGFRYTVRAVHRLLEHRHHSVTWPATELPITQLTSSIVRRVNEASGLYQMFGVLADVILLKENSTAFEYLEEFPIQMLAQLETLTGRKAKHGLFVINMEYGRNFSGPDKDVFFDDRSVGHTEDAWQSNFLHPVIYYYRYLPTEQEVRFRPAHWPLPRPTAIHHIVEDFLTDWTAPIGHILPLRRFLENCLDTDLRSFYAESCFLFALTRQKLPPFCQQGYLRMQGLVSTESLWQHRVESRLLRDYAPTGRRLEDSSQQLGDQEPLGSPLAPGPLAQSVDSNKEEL
# The other results are listed elsewhere or left out.
# Legend:
# Assay in all cases: log2 fold change, soluble protein after heating vs DMSO (PISA); higher = thermal stabilisation; K562 lysate, 10 uM; active = over 0.2 and 3.5 SD of the protein, either way, in both replicates (recomputed)
# [1] = compound: CN1CC[C@H](c2c(O)cc(O)c3c(=O)cc(-c4ccccc4Cl)oc23)[C@H](O)C1 [alvocidib]
# Outline: (§1)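 Following dounce homogenisation of K562 pellets in PBS pH 7.4 with 1 mM MgCl2, crude extract at 1 mg/mL protein was incubated for 30 min with 10 μM compound. Aliquots were then heated for 3 min over 48°C-58°C and pooled, NP-40 was added to 0.5% at 4°C, and soluble protein was recovered as the supernatant at 21,000xg for 90 min. Channel-sum-equalised TMTpro 16plex LC-MS/MS quantified this protein. Each value, from duplicates, is a log-two fold change in thermal stability relative to solvent controls.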
# [2] = compound: CN1CCc2c(c3ccccc3n2Cc2ccc(C(=O)NO)cc2)C1 [Tubastatin A]
# Outline: as §1
# [3] = compound: CNC(=O)C1=CC=CC=C1NC2=NC(=NC=C2Cl)NC3=C(C=C(C=C3)N4CCOCC4)OC
# Outline: as §1
# [4] = compound: CNC(=O)c1ccc(Nc2ncc(C(F)(F)F)c(NCc3nccnc3N(C)S(C)(=O)=O)n2)cc1 [defactinib]
# Outline: as §1
# [5] = compound: CNc1nc(-c2ccc3c(N)n[nH]c3c2)cc(N2C[C@@H](C(=O)NC3CCCCC3)CC[C@H]2C)n1
# Outline: as §1
# [6] = compound: COc1cc(Nc2ncc3c(n2)-c2ccc(Cl)cc2C(c2c(F)cccc2OC)=NC3)ccc1C(=O)O [alisertib]
# Outline: as §1
# [7] = compound: COc1cc2nc(-c3cc(F)ccc3O)nc(N[C@@H]3CNC[C@H]3C(C)(C)O)c2cc1OC
# Outline: as §1
# [8] = compound: COc1cc2ncnc(Nc3ccc(F)c(Cl)c3)c2cc1OCCCN1CCOCC1 [gefitinib]
# Outline: as §1
# [9] = compound: CS(=O)(=O)CCNCc1ccc(-c2ccc3ncnc(Nc4ccc(OCc5cccc(F)c5)c(Cl)c4)c3c2)o1 [lapatinib]
# Outline: as §1
# [10] = compound: CS(=O)(=O)N1CCN(Cc2cc3nc(-c4cccc5[nH]ncc45)nc(N4CCOCC4)c3s2)CC1 [pictilisib]
# Outline: as §1
# [11] = compound: C[C@H](C1=CC=C(C=C1)C(=O)NC2=C3C=CNC3=NC=C2)N
# Outline: as §1
# [12] = compound: C[C@H](Nc1ncnc2nc[nH]c12)c1cc2cccc(Cl)c2c(=O)n1-c1ccccc1 [duvelisib]
# Outline: as §1
# [13] = compound: Cc1cc(Nc2cc(CN3CCOCC3)c3nc(C)c(Cc4ccc(Cl)cc4F)n3n2)n[nH]1 [gandotinib]
# Outline: as §1
# [14] = compound: Cc1ccc(NC(=O)c2ccc(CN3CC[C@H](N(C)C)C3)c(C(F)(F)F)c2)cc1Nc1nccc(-c2cncnc2)n1 [bafetinib]
# Outline: as §1
# [15] = compound: Cc1cccc(CC(=O)N2CCc3c2ccc(-c2cn(C)c4ncnc(N)c24)c3F)n1
# Outline: as §1
# [16] = compound: COC(=O)N[C@@H](C)CNc1nccc(-c2cn(C(C)C)nc2-c2cc(Cl)cc(NS(C)(=O)=O)c2F)n1 [encorafenib]
# Outline: as §1
# [17] = compound: COC(=O)[C@H](CCSC)NC(=O)C1=C(C=C(C=C1)NC[C@H](CS)N)C2=CC=CC=C2
# Outline: as §1
# [18] = compound: C[C@@H](Oc1cc(-c2cnn(C3CCNCC3)c2)cnc1N)c1c(Cl)ccc(F)c1Cl [crizotinib]
# Outline: as §1
# [19] = compound: Cc1cc(Nc2cc(N3CCN(C)CC3)nc(Sc3ccc(NC(=O)C4CC4)cc3)n2)n[nH]1 [tozasertib]
# Outline: as §1
# [20] = compound: Cc1ccc(-n2nc(C(C)(C)C)cc2NC(=O)Nc2ccc(OCCN3CCOCC3)c3ccccc23)cc1 [doramapimod]
# Outline: as §1
Target,log2 fold change [1],log2 fold change [2],log2 fold change [3],log2 fold change [4],log2 fold change [5],log2 fold change [6],log2 fold change [7],log2 fold change [8],log2 fold change [9],log2 fold change [10],log2 fold change [11],log2 fold change [12],log2 fold change [13],log2 fold change [14],log2 fold change [15],log2 fold change [16],log2 fold change [17],log2 fold change [18],log2 fold change [19],log2 fold change [20]
GDI2 (UniProt Q5SX86),inactive: -0.101,inactive: 0.214,inactive: -0.083,inactive: 0.123,inactive: -0.157,inactive: -0.228,inactive: 0.056,inactive: -0.253,inactive: -0.101,inactive: 0.023,inactive: -0.205,inactive: 0.056,inactive: -0.125,inactive: -0.276,inactive: 0.076,,,,,
GBA2 (UniProt Q9HCG7),inactive: -0.046,inactive: -0.032,inactive: 0.073,,inactive: -0.098,inactive: -0.004,inactive: 0.013,inactive: 0.2,inactive: -0.062,inactive: -0.012,inactive: -0.094,inactive: 0.06,inactive: -0.009,inactive: -0.199,inactive: 0.054,inactive: -0.052,inactive: 0.079,inactive: 0.014,inactive: -0.138,inactive: 0.055
GART (UniProt C9JZG2),inactive: -0.071,inactive: 0.018,,,,inactive: 0.121,inactive: -0.056,inactive: 0.281,inactive: -0.131,inactive: 0.019,inactive: -0.371,,inactive: 0.02,inactive: 0.026,inactive: 0.19,inactive: 0.038,inactive: 0.088,inactive: -0.245,inactive: 0.037,inactive: 0.166
GEMIN7 (UniProt Q9H840),inactive: 0.028,inactive: 0.008,,,,inactive: 0.061,,inactive: -0.011,,inactive: 0.102,inactive: -0.25,,inactive: 0.079,inactive: 0.001,inactive: 0.222,,,inactive: -0.034,,inactive: -0.087
GDF15 (UniProt Q99988),inactive: -0.057,inactive: -0.058,inactive: -0.017,inactive: -0.097,inactive: 0.15,inactive: -0.073,,inactive: 0.061,,,inactive: 0.101,inactive: -0.096,inactive: 0.03,,inactive: 0.037,,,inactive: 0.001,,inactive: -0.035
FURIN (UniProt P09958),inactive: -0.04,inactive: 0.112,inactive: -0.051,inactive: 0.008,inactive: 0.031,inactive: 0.033,,inactive: 0.344,,inactive: -0.02,inactive: 0.032,inactive: -0.009,inactive: 0.042,inactive: -0.044,inactive: -0.011,inactive: 0.031,inactive: 0.011,inactive: 0.006,inactive: 0.082,inactive: 0.13
GADD45A (UniProt P24522),inactive: 0.112,inactive: 0,,,,inactive: -0.087,,inactive: 0.032,,,inactive: 0.164,,inactive: 0.204,,inactive: -0.227,,,inactive: -0.057,,inactive: 0.015
GALNT6 (UniProt Q8NCL4),inactive: -0.041,,inactive: 0.075,inactive: -0.009,inactive: -0.063,inactive: -0.119,inactive: -0.073,inactive: 0.005,inactive: 0.086,inactive: -0.157,inactive: -0.166,inactive: -0.041,inactive: -0.033,inactive: -0.064,inactive: 0.095,inactive: 0.055,inactive: -0.078,inactive: -0.146,inactive: 0.031,inactive: -0.017
GALNT7 (UniProt H0YAH3),inactive: 0.153,,inactive: -0.217,inactive: 0,,inactive: -0.072,,inactive: -0.021,,,inactive: -0.011,,inactive: 0.036,,inactive: -0.075,inactive: -0.053,inactive: -0.052,,inactive: -0.024,
GBP2 (UniProt P32456),inactive: -0.015,inactive: -0.114,inactive: 0.126,,inactive: 0.176,,inactive: -0.115,,inactive: 0.04,,inactive: -0.29,inactive: -0.033,inactive: 0.019,,inactive: 0.248,inactive: 0.076,inactive: 0.008,inactive: -0.097,inactive: 0.055,inactive: 0.068
FYN (UniProt P06241),inactive: -0.078,inactive: 0.03,inactive: -0.009,inactive: 0.038,inactive: -0.069,,inactive: 0.005,,inactive: 0.007,inactive: -0.201,inactive: -0.092,inactive: -0.019,active: 0.422,inactive: 0.198,inactive: -0.057,inactive: 0.092,inactive: -0.121,inactive: 0.12,inactive: 0.054,inactive: -0.04
FRAS1 isoform 2 (UniProt Q86XX4),,,,inactive: -0.051,inactive: 0.083,,,,,,,inactive: 0.032,,,,,,inactive: -0.247,,inactive: 0.204
FOXL2 (UniProt P58012),,inactive: -0.049,inactive: 0.031,,inactive: 0.005,,inactive: 0.015,,inactive: -0.25,inactive: 0.091,,inactive: 0.094,,active: -0.703,,inactive: 0.079,inactive: 0.138,,inactive: -0.092,
GAB3 isoform 2 (UniProt Q8WWW8),,inactive: -0.007,,,inactive: -0.091,,,,,,,inactive: -0.037,,,,inactive: 0.123,inactive: 0.083,inactive: -0.054,inactive: -0.032,inactive: 0.162
GDPD5 (UniProt Q8WTR4),,,,inactive: 0.039,,,,,,,,,,,,,,inactive: 0.002,,inactive: -0.02
"FOXO3B, A0A2Z4LIS9",,,,inactive: -0.006,inactive: 0.07,,,,,,,inactive: 0.036,,,,,,,,
GAGE1 (UniProt Q13065),,inactive: -0.066,,,,,inactive: -0.013,,inactive: 0.012,inactive: -0.05,,,,inactive: 0.037,,inactive: 0.282,inactive: -0.194,,inactive: -0.079,
FOXRED2 (UniProt Q8IWF2),,inactive: 0.21,inactive: 0.159,inactive: 0.033,inactive: 0.133,inactive: 0.024,,inactive: -0.091,,,,inactive: -0.126,,,,inactive: -0.173,inactive: -0.08,inactive: 0.074,inactive: -0.044,inactive: 0.019

# 2 entries drawn at random from the list so far:
Target,log2 fold change [1],log2 fold change [2],log2 fold change [3],log2 fold change [4],log2 fold change [5],log2 fold change [6],log2 fold change [7],log2 fold change [8],log2 fold change [9],log2 fold change [10],log2 fold change [11],log2 fold change [12],log2 fold change [13],log2 fold change [14],log2 fold change [15],log2 fold change [16],log2 fold change [17],log2 fold change [18],log2 fold change [19],log2 fold change [20]
FURIN (UniProt P09958),inactive: -0.04,inactive: 0.112,inactive: -0.051,inactive: 0.008,inactive: 0.031,inactive: 0.033,,inactive: 0.344,,inactive: -0.02,inactive: 0.032,inactive: -0.009,inactive: 0.042,inactive: -0.044,inactive: -0.011,inactive: 0.031,inactive: 0.011,inactive: 0.006,inactive: 0.082,inactive: 0.13
FYN (UniProt P06241),inactive: -0.078,inactive: 0.03,inactive: -0.009,inactive: 0.038,inactive: -0.069,,inactive: 0.005,,inactive: 0.007,inactive: -0.201,inactive: -0.092,inactive: -0.019,active: 0.422,inactive: 0.198,inactive: -0.057,inactive: 0.092,inactive: -0.121,inactive: 0.12,inactive: 0.054,inactive: -0.04
